The campaign covered roughly 400,000 compounds. About 13,000 (3.2%) were called active. Inconclusive means that the source gave no clear call. Such entries were picked first, then a sample of the others. The call rests on the fitted dose curve; in most records, active means well fitted cell-killing curve with a large enough effect; inconclusive means small, poorly fitted or top-dose-only effect, or effect the other way; inactive means flat fitted curve, though single readings scatter. Where the call is inconclusive, the potency comes from a doubtful curve fit.
Assay: qHTS assay for MDR1-selective chemotherapeutics: Primary screen using the drug-selected MDR subline cells KB-V1; further: nearly all actives have a fitted effect of over 60% in size
Conditions: KB-V1 MDR cells viability, CellTiter-Glo, 72 h; activity change, negative = cytotoxicity: at 46.1 µM (top of the series)
Outline: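 Cytotoxicity toward P-gp-expressing KB-V1 cells was determined as loss of CellTiter-Glo luminescence after 72 h at 37 degrees C. Compounds were tested in quantitative HTS format across a concentration range, with curves fitted to normalized data.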
With `CN(C(=O)c1ccccc1C(=O)OCC(=O)Nc1ccccc1)c1ccccc1` the “activity change, negative = cytotoxicity” value was inactive: -0.349%.
With `Cc1ccc2nc(SCc3ccc([N+](=O)[O-])cc3)[nH]c2c1` the Potency was active: 16.4 µM.
In the case of `O=C(CSc1c2c(nc3cc(Cl)ccc13)CCCC2)NCc1ccco1`, the Potency is reported as inconclusive: 20.6 µM [cytotoxic, single point].
In the case of `Cc1cc(C)c2c(c1)/C(=N/Nc1ccc(S(N)(=O)=O)cc1[N+](=O)[O-])CCC2`, the Potency is reported as inconclusive: 29.1 µM [cytotoxic, single point].
With `CCCCCCN1C[C@H](n2cc(COC(=O)c3ccccc3)nn2)[C@@H](O)C[C@@H]1c1ccc(Cl)cc1` the Potency was active: 20.6 µM.
In the case of `CCc1nc2ccc(C(=O)N3CCN(c4ccc(Cl)cc4)CC3)cc2nc1CC`, the Potency is reported as inconclusive: 1.84 µM [cytotoxic, partial curve, poor fit].
For `CCOc1ccc(Br)cc1CC(=O)O`, the “activity change, negative = cytotoxicity” value was inactive: -0.661%.
For `CCOC(=O)C1=C(O)/C(=C/c2ccc(CNC(=O)C(=O)Nc3ccc(C)cc3)o2)N=C1C`, the Potency was inconclusive: 29.1 µM [rising, single point].
In the case of `O=C(C=Cc1cccnc1)c1ccccc1`, the Potency is reported as inconclusive: 18.4 µM [cytotoxic, single point].
In the case of `CN(C(=O)c1ccc(NC(=O)Cc2cccc(NC(=O)C3CCCN(C(=O)C4CC4)C3)c2)cc1)C1CCCC1` (centres undefined), the “activity change, negative = cytotoxicity” value is reported as inactive: 5.41%.
In the case of `CN1CCCN(C(=O)CC2(CC(=O)O)CCCC2)CC1`, the Potency is reported as inconclusive: 11.6 µM [rising, partial curve].
In the case of `CC(C)Cc1c(O)nc(SCC(=O)N2CCCCCC2)[nH]c1=O`, the Potency is reported as inconclusive: 29.1 µM [rising, partial curve, poor fit].
For `COc1ccccc1NC(=O)C1=C(C)Nc2nc(SCc3ccccc3Cl)nn2C1c1cccnc1` (centres undefined), the “activity change, negative = cytotoxicity” value was inactive: 15.9%.
For `CN1CCN(C(=S)Nc2cccc(Cl)c2)CC1`, the Potency was active: 13 µM.
For `CN(C(=O)NCc1noc2ccccc12)c1cccc(Cl)c1`, the “activity change, negative = cytotoxicity” value was inactive: -4.35%.
With `COc1cccc(-n2c(=S)sc3c(=O)n(-c4ccccc4OC)c(=S)[nH]c32)c1` the activity change, negative = cytotoxicity was inconclusive: 20.5%.
In the case of `COc1ccccc1/C=N/Nc1cc(C)nc2ccc(C)cc12`, the “activity change, negative = cytotoxicity” value is reported as inactive: 27%.
For `O=C(CN(Cc1ccccc1Cl)C(=O)Cn1nnc(-c2cccs2)n1)NCC1CCCO1` (centres undefined), the Potency was inconclusive: 20.6 µM [cytotoxic, single point].
With `O=C(CCNC(=O)c1ccc(Br)cc1)Nc1ccccc1N1CCCCC1` the “activity change, negative = cytotoxicity” value was inactive: -32.2%.
With `CCN(CC)S(=O)(=O)c1cccc(C(=O)OCC(=O)C23CC4CC(CC(C4)C2)C3)c1` the Potency was active: 14.6 µM.
In the case of `COc1ccc(S(=O)(=O)Nc2cccc3c2O[C@H](CN(C)C(=O)Nc2c(C)noc2C)[C@@H](C)CN([C@H](C)CO)C3=O)cc1`, the Potency is reported as inconclusive: 13 µM [rising, partial curve, poor fit].
With `COc1ccc(Cn2c(C)nc3ccc([N+](=O)[O-])cc3c2=O)cc1` the “activity change, negative = cytotoxicity” value was inactive: -17.4%.
With `COc1ccc(-c2noc(C3CCCN(C(=O)Nc4ccccc4F)C3)n2)cc1` (centres undefined) the Potency was inconclusive: 14.6 µM [cytotoxic, partial curve].
In the case of `Cc1ccc(S(=O)(=O)N(C)c2ccc(C(=O)N3CCN(Cc4ccc5c(c4)OCO5)CC3)cc2)cc1`, the Potency is reported as active: 1.64 µM.
In the case of `CCNC(=S)N/N=C/c1ccc(OCC(=O)Nc2ccc(OC)cc2)c(OC)c1`, the Potency is reported as inconclusive: 1.64 µM [cytotoxic, full curve].
In the case of `COc1ccc(C2=NN(c3nc(-c4ccccc4)c(CC(=O)O)s3)C(c3ccco3)C2)cc1` (centres undefined), the “activity change, negative = cytotoxicity” value is reported as inactive: 0.417%.
For `Cc1ccc(NC(c2cccc(Cl)c2)c2nnc(-c3ccccc3)o2)cc1F` (centres undefined), the Potency was inconclusive: 29.1 µM [cytotoxic, single point].
With `CCSc1nnc(Cn2c(=O)sc3ccccc32)n1C` the “activity change, negative = cytotoxicity” value was inactive: -27.4%.
In the case of `Cc1onc(-c2c(Cl)cccc2Cl)c1C(=O)NCC1CCCO1` (centres undefined), the “activity change, negative = cytotoxicity” value is reported as inactive: -4.6%.
In the case of `COC(=O)C1=C(C(=O)OC)SC2(S1)C(C(=O)OC)=C(C(=O)OC)SC1=C2c2cc(C)ccc2NC1(C)C`, the “activity change, negative = cytotoxicity” value is reported as inactive: 0.812%.
With `Cc1ccc(S(=O)(=O)Cc2ccc(C(=O)NCc3cccs3)o2)cc1` the Potency was inconclusive: 18.4 µM [cytotoxic, single point].
In the case of `Cc1cccc(-n2c(SCc3ccc([N+](=O)[O-])cc3)nnc2-c2c[nH]c3ccccc23)c1`, the Potency is reported as inconclusive: 3.66 µM [cytotoxic, full curve].
For `COc1cc(Cc2cc(OC)c(O)c(OC)c2)cc(OC)c1O`, the Potency was inconclusive: 29.1 µM [cytotoxic, single point].
For `COc1ccc(CN(C)C(=O)c2[nH]c(C)c(C(C)=O)c2C)cc1F`, the Potency was inconclusive: 14.6 µM [cytotoxic, partial curve, poor fit].
In the case of `COC(=O)[C@@]1(Sc2ccc(C)cc2)CC(=O)N(c2ccc3c(ccn3C)c2)[C@@H]1c1ccccc1`, the Potency is reported as inconclusive: 20.6 µM [cytotoxic, single point].
For `Cc1cc(C)c2nc(Cl)c(Cl)nc2c1`, the Potency was inconclusive: 7.31 µM [rising, partial curve, poor fit].
For `CN(C)CCCN(C(=O)c1ccc(S(=O)(=O)N2CCc3ccccc32)cc1)c1nc2c(Cl)cccc2s1`, the Potency was inconclusive: 29.1 µM [cytotoxic, single point].
In the case of `CC(c1ccccc1)C(OC(=O)c1cccc([N+](=O)[O-])c1C(=O)O)c1ccccc1` (centres undefined), the Potency is reported as inconclusive: 29.1 µM [rising, single point].
With `COc1ccc2oc(=O)c(-c3nc4ccc(C)cc4[nH]3)cc2c1` the Potency was inconclusive: 2.91 µM [cytotoxic, partial curve, poor fit].
In the case of `CN1CCN(S(=O)(=O)c2ccc(Nc3ccc(F)cc3)c([N+](=O)[O-])c2)CC1`, the activity change, negative = cytotoxicity is reported as inconclusive: -30.7% [cytotoxic].
With `O=C1c2ccccc2C(=O)N1CCc1c[nH]c2ccc(O)cc12` the Potency was inconclusive: 8.2 µM [rising, partial curve, poor fit].
With `CCOC(=O)NC1(Nc2cccc(Cl)c2)Oc2ccccc2O1` the Potency was inconclusive: 29.1 µM [cytotoxic, single point].
With `CCC(=O)N1CCc2cc(S(=O)(=O)NCCC(=O)Nc3cccc(SC)c3)ccc21` the “activity change, negative = cytotoxicity” value was inactive: 16.2%.
For `COc1ccc(C(=O)C(CCCCC(CN(C)C)C(=O)c2ccc(OC)cc2)CN(C)C)cc1` (centres undefined), the Potency was active: 13 µM.

From PubChem BioAssay AID1347076 (National Center for Advancing Translational Sciences (NCATS), 2019)
On the % scale 0 is the no-effect control and ±100 the full control effect; potency means the concentration at half of the fitted maximal effect.
